Values from PubChem BioAssay AID1259307 (Sanger Institute, 2017)

Test: 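Identify kinases needed for SW620 growth or enhancing BYL719, cetuximab or trametinib effects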 (primary screen)
Cells: SW620 colorectal cancer cells
Reagent: siRNA pool against human genes
Challenge: anchor drugs BYL719 at 1 µM, cetuximab at 5 µg/ml or trametinib at 10 nM, each beside a DMSO vehicle arm
Detection: 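Cell viability in each well relative to non-targeting controls, averaged over replicates and turned into a robust z-score; synergy with BYL719 (1 µM), cetuximab (5 µg/ml), trametinib (10 nM) versus DMSO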
Direction: viability robust z-score, no drug: higher = more viable cells
Active means: 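a knock-down counts as lethal alone if its drug-free robust viability z-score is lower than -3, regardless of synergy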
Meaning of the calls: active = essential (lethal alone); inactive = no change alone
The deposit covers 794 reagents; below is a random part of them. 15 of all reagents (1.9%) count as active. 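Calls reflect lethality without any drug; synergy scores did not enter the calls.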 Not all columns of the deposit are shown. Not given: the amount of reagent, the time to read-out.

Depletion of MAP4K5 (mitogen-activated protein kinase kinase kinase kinase 5) resulted in: viability robust z-score, no drug -0.551; inactive. Against NEK3 (NIMA related kinase 3), the values are viability robust z-score, no drug 0.736; inactive. Against CRKL (CRK like proto-oncogene, adaptor protein) the deposit lists viability robust z-score, no drug 0.736; inactive. For CDK11A (cyclin dependent kinase 11A), the entry reads viability robust z-score, no drug -3.93; active. After knock-down of DCK (deoxycytidine kinase) the results were viability robust z-score, no drug -5.24; active. With knock-down of STK38 (serine/threonine kinase 38) the results were viability robust z-score, no drug -1.58; inactive.

Against RPS6KB1 (ribosomal protein S6 kinase B1), the entry reads viability robust z-score, no drug 0.396; inactive. After knock-down of LYN (LYN proto-oncogene, Src family tyrosine kinase) the results were viability robust z-score, no drug 0.736; inactive. Silencing of EIF2AK4 (eukaryotic translation initiation factor 2 alpha kinase 4) gave: viability robust z-score, no drug -0.466; inactive. For AMHR2 (anti-Mullerian hormone receptor type 2), the entry reads viability robust z-score, no drug 0.736; inactive. After knock-down of ETNK2 (ethanolamine kinase 2), the screen gave viability robust z-score, no drug 0.736; inactive. For KSR1 (kinase suppressor of ras 1) the deposit lists viability robust z-score, no drug -0.41; inactive.

For PAPSS2 (3'-phosphoadenosine 5'-phosphosulfate synthase 2), the values are viability robust z-score, no drug 0.736; inactive. POLR2B (RNA polymerase II subunit B) showed viability robust z-score, no drug -4.67; active. After knock-down of MPP2 (MAGUK p55 scaffold protein 2) the results were viability robust z-score, no drug 0.304; inactive. With knock-down of CAMK2G (calcium/calmodulin dependent protein kinase II gamma), the record shows viability robust z-score, no drug 0.736; inactive.

Entries listed so far with an active call:
CDK11A (cyclin dependent kinase 11A) — viability robust z-score, no drug = -3.93; activity call = active
DCK (deoxycytidine kinase) — viability robust z-score, no drug = -5.24; activity call = active
POLR2B (RNA polymerase II subunit B) — viability robust z-score, no drug = -4.67; activity call = active

Next entries follow:
RIPK1 (receptor interacting serine/threonine kinase 1) showed viability robust z-score, no drug 0.736; inactive. After knock-down of WNK3 (WNK lysine deficient protein kinase 3) the results were viability robust z-score, no drug 0.736; inactive. Depletion of PRKCH (protein kinase C eta) gave: viability robust z-score, no drug -0.0186; inactive. With knock-down of ARID1A (AT-rich interaction domain 1A), the record shows viability robust z-score, no drug -1.37; inactive. For NTN4 (netrin 4), the values are viability robust z-score, no drug -1.14; inactive. SGK3 (serum/glucocorticoid regulated kinase family member 3) scored viability robust z-score, no drug 0.736; inactive.

Knock-down of AK5 (adenylate kinase 5) resulted in: viability robust z-score, no drug -0.816; inactive. Silencing of TEX14 (testis expressed 14, intercellular bridge forming factor) came out at: viability robust z-score, no drug 0.478; inactive. For GCK (glucokinase) the deposit lists viability robust z-score, no drug -0.265; inactive. Depletion of CSNK1G1 (casein kinase 1 gamma 1) came out at: viability robust z-score, no drug 0.594; inactive. Depletion of PXK (PX domain containing serine/threonine kinase like) came out at: viability robust z-score, no drug 0.373; inactive. CDKN2D (cyclin dependent kinase inhibitor 2D) showed viability robust z-score, no drug -0.783; inactive.
